Some of the results follow.

By UniProt entry, the sequences of proteins in these tests, tags left out. Where a name states a change or a piece, a line headed by the entry shows the natural chain unless it says otherwise.
UniProt Q99442: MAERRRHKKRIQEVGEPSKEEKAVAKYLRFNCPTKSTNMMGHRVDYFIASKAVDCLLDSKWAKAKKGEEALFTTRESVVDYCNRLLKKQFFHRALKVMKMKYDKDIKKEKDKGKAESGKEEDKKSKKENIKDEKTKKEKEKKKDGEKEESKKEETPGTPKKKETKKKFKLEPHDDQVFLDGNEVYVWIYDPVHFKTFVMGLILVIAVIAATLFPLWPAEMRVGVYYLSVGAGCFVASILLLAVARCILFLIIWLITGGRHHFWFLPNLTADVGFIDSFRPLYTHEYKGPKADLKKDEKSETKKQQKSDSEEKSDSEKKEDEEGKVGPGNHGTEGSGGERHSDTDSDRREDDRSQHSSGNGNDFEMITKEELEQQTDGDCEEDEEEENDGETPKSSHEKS
UniProt O75446: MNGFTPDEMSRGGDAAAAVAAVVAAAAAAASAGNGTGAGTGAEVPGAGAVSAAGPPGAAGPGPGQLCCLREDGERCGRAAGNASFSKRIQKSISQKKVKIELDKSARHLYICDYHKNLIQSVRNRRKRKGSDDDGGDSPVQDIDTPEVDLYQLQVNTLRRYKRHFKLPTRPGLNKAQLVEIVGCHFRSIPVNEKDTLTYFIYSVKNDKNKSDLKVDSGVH
UniProt Q96HI0: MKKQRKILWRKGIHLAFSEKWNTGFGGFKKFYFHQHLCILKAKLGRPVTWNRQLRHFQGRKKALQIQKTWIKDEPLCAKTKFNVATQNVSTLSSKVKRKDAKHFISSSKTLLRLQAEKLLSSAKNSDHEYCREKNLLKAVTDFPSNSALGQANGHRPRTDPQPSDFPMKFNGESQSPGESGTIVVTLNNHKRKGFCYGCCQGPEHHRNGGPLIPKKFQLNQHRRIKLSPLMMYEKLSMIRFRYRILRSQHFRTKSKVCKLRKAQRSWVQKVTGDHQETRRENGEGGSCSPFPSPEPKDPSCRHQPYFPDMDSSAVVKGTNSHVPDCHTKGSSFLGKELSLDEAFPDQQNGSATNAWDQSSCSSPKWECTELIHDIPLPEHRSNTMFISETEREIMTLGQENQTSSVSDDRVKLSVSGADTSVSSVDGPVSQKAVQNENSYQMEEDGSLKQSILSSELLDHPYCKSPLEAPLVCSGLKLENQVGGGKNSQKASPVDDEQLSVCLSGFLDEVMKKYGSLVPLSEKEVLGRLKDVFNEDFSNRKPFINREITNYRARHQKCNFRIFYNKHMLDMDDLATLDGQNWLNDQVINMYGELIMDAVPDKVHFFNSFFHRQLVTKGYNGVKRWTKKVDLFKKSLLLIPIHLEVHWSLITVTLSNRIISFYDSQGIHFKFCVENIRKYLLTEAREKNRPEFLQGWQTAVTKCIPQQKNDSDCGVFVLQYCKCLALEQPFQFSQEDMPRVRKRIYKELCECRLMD
UniProt O14521: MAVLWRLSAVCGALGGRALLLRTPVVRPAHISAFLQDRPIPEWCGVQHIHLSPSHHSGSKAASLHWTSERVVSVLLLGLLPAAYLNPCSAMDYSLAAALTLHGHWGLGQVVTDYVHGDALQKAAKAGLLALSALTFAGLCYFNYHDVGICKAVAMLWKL
UniProt Q9BY50: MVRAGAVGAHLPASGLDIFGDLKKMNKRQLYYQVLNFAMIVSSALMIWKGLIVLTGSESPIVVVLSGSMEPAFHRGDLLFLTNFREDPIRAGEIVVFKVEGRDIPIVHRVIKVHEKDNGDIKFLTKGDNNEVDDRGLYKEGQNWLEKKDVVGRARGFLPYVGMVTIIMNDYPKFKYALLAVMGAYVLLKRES
UniProt Q9UQR0: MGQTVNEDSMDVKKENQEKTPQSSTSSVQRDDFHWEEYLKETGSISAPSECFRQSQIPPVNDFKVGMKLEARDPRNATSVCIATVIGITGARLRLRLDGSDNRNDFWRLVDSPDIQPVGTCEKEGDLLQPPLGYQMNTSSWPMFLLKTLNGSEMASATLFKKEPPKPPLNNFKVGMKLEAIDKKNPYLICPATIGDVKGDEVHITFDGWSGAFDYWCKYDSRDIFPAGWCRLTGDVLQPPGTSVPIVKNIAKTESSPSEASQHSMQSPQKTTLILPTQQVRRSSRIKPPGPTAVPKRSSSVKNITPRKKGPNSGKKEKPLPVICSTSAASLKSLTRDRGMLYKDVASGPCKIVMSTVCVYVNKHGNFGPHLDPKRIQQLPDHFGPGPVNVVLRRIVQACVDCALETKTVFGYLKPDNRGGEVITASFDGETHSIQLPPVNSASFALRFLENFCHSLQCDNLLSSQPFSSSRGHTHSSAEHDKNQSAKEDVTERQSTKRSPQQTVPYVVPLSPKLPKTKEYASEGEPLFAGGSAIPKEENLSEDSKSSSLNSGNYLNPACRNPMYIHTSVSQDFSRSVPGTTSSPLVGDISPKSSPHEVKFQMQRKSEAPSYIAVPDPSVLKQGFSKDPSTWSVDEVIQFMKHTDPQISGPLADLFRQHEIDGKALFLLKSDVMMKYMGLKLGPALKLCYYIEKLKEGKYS
UniProt Q9Y6D0, whole entry, looked up: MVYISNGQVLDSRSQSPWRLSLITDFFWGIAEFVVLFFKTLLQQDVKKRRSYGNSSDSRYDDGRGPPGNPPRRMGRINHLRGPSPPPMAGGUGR
UniProt Q5VUM1: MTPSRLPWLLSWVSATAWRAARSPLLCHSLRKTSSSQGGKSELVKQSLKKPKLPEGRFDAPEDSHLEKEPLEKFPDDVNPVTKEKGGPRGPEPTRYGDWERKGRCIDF
UniProt Q96LD8: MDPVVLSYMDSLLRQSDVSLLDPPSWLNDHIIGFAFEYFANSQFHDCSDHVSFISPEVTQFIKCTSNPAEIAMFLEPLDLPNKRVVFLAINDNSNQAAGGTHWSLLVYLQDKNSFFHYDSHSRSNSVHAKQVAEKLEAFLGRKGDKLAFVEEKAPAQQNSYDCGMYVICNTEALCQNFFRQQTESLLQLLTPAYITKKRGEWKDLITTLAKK
UniProt Q9NX18: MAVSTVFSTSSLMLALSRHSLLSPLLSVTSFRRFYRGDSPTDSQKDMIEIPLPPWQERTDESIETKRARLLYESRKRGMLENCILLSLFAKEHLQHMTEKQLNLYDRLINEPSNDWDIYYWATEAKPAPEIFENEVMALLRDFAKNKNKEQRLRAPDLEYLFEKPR
UniProt Q14108: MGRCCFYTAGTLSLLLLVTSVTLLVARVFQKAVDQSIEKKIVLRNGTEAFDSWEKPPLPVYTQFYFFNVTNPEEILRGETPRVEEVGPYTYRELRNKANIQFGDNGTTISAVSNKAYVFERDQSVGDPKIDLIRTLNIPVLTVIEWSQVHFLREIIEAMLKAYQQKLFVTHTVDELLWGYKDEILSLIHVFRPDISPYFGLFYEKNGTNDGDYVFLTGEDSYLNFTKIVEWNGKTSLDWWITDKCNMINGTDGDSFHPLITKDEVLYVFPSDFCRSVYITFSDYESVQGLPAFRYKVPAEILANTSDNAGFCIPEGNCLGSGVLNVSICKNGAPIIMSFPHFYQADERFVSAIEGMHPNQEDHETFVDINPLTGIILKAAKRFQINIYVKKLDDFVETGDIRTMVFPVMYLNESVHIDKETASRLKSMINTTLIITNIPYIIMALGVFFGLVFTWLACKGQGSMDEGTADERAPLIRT
UniProt P61619, whole entry, looked up: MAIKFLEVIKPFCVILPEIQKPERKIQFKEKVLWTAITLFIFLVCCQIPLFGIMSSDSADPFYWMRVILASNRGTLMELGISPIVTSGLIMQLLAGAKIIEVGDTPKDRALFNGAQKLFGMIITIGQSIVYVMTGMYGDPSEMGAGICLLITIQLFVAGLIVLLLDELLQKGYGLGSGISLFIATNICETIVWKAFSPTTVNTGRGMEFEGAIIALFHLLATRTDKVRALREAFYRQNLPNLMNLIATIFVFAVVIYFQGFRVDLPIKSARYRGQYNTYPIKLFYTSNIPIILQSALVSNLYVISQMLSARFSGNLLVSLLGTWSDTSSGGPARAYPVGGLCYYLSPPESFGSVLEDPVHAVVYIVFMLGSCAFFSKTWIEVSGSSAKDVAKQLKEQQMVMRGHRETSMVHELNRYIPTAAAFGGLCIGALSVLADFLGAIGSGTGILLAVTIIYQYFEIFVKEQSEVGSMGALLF
UniProt Q9H7N4: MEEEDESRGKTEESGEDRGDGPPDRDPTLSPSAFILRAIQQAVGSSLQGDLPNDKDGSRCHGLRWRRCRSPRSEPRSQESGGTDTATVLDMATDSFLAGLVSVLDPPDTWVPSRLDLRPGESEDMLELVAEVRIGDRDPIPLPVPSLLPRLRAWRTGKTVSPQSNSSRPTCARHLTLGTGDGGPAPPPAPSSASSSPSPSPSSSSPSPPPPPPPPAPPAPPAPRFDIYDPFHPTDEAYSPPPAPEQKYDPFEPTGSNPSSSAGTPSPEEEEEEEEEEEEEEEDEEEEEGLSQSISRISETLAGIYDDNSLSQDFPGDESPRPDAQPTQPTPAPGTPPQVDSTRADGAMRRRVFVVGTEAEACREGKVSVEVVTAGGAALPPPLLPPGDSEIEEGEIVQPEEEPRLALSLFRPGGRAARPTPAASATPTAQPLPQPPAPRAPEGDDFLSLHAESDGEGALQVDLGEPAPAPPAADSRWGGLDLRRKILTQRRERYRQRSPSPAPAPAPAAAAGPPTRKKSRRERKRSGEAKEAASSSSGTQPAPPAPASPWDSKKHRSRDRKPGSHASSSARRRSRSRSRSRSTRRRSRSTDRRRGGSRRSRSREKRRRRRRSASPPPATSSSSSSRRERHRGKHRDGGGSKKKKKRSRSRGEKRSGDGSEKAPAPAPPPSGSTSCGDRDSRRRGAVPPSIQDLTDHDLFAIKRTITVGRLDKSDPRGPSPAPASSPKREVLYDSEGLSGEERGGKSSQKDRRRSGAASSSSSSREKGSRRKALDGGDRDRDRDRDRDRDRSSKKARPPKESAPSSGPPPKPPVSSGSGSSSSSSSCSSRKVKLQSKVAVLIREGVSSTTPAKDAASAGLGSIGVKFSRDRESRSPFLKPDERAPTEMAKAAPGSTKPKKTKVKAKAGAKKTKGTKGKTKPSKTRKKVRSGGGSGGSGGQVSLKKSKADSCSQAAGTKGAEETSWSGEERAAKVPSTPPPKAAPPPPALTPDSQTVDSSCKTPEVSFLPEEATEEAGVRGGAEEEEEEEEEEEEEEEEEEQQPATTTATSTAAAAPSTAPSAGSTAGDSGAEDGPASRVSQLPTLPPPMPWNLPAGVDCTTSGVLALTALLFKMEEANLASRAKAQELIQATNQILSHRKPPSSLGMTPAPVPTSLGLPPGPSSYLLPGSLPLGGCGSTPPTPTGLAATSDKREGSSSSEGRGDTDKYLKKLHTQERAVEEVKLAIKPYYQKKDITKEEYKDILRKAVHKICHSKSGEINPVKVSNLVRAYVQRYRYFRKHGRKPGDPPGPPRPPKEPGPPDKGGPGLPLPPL
UniProt Q15424: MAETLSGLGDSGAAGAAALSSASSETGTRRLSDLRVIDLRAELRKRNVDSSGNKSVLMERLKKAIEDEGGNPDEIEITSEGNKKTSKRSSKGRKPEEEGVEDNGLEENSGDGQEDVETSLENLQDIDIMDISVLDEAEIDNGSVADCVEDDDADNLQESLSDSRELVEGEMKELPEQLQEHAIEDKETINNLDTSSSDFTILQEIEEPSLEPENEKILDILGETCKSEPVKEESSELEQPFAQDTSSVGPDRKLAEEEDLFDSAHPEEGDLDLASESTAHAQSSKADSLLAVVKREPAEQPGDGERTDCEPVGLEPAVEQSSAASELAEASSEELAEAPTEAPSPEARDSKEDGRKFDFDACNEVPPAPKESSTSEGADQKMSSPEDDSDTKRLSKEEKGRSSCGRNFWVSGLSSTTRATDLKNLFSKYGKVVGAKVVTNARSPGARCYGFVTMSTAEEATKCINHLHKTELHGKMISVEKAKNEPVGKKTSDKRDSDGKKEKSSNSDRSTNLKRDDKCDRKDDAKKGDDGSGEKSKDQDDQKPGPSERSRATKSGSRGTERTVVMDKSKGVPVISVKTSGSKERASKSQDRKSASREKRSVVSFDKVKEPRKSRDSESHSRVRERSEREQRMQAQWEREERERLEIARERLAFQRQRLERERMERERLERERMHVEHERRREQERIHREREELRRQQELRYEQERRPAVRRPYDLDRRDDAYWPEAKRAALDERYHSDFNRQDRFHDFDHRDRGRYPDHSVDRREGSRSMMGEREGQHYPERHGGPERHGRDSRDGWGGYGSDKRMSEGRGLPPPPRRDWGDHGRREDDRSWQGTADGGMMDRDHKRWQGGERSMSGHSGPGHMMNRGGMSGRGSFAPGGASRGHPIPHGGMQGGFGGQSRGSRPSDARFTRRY
UniProt P62341, whole entry, looked up: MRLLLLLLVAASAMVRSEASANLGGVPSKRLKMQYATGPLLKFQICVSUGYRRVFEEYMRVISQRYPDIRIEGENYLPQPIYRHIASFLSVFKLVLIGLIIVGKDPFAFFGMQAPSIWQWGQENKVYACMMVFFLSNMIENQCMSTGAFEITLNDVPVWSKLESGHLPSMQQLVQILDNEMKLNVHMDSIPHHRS
UniProt O95969: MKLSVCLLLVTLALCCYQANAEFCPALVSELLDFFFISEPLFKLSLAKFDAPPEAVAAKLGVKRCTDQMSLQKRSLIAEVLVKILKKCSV

This is an account of results in the supplement of paper PMC10849652.

Compound in the first experiment: CCCS(=O)(=O)Nc1ccc(F)c(C(=O)c2c[nH]c3ncc(-c4ccc(Cl)cc4)cc23)c1F [vemurafenib]
Kind of experiment: log2 fold change, soluble protein after heating vs DMSO (PISA); higher = thermal stabilisation; K562 lysate, 10 uM; active = over 0.2 and 3.5 SD of the protein, either way, in both replicates (recomputed). The gist of the method:
(§1)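 Dounce homogenisation of K562 pellets in PBS pH 7.4 with 1 mM MgCl2 produced a crude extract, used at 1 mg/mL protein. Exposure to 10 μM compound lasted 30 min, and aliquots were then heated for 3 min across 48°C-58°C, pooled and brought to 0.5% NP-40 at 4°C. The supernatant after 21,000xg for 90 min was quantified by TMTpro 16plex LC-MS/MS with channel sums equalised. Duplicate values are given as log-two fold change in thermal stability relative to solvent controls.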
Regarding SATB2 (UniProt Q9UPW6), the log2 fold change was inactive: 0.002.

Regarding SEMA4G isoform 2 (UniProt Q9NTN9), the log2 fold change is inactive: 0.042.

For SEC62 (UniProt Q99442), the log2 fold change is inactive: -0.024.

Turning to SAP30 (UniProt O75446), the log2 fold change was inactive: -0.016.

On to SENP5 (UniProt Q96HI0), for which the log2 fold change is inactive: 0.044.

Take SDHD (UniProt O14521): the log2 fold change is inactive: -0.071.

As for SEC11C (UniProt Q9BY50), the log2 fold change is inactive: 0.02.

In the case of SCYL3 isoform 2 (UniProt Q8IZE3), the log2 fold change was inactive: 0.007.

On to SEC24B isoform 3 (UniProt O95487), for which the log2 fold change was inactive: 0.028.

Regarding SCML2 (UniProt Q9UQR0), the log2 fold change is inactive: 0.033.

Turning to SEC14L1 isoform 2 (UniProt Q92503), the log2 fold change was inactive: 0.317.

As to SAP130 isoform 3 (UniProt Q9H0E3), the log2 fold change was inactive: 0.018.

As to SELENOK (UniProt Q9Y6D0), the log2 fold change was inactive: -0.034.

As to SCG3 (UniProt Q8WXD2), the log2 fold change is inactive: 0.275.

Turning to SDHAF4 (UniProt Q5VUM1), the log2 fold change is inactive: -0.02.

As to SENP8 (UniProt Q96LD8), the log2 fold change was inactive: 0.099.

On to SCAI isoform 2 (UniProt Q8N9R8), for which the log2 fold change was inactive: -0.107.

For the target SDHB, A0A087WWT1, the log2 fold change is inactive: -0.1.

Turning to SDHB, A0A087WXX8, the log2 fold change was inactive: 0.128.

In the case of SDHAF2 (UniProt Q9NX18), the log2 fold change was inactive: 0.079.

SEL1L3 (UniProt Q68CR1): the log2 fold change was inactive: 0.025.

As to SENP3 (UniProt Q9H4L4), the log2 fold change was inactive: -0.08.

On to SCARB2 (UniProt Q14108), for which the log2 fold change was inactive: -0.005.

Take SEC61A1 (UniProt P61619): the log2 fold change is inactive: 0.069.

Turning to SBNO2 (UniProt Q9Y2G9), the log2 fold change is inactive: -0.126.

Regarding SAE1 (UniProt M0R286), the log2 fold change was inactive: 0.051.

Turning to SCAF1 (UniProt Q9H7N4), the log2 fold change was inactive: 0.027.

Consider SAFB isoform 3 (UniProt Q15424), for which the log2 fold change is inactive: 0.038.

Compound in another experiment: CCCS(=O)(=O)Nc1ccc(F)c(C(=O)c2c[nH]c3ncc(Cl)cc23)c1F
The description is as above. The gist of the method:
as §1
Take SATB2 (UniProt Q9UPW6): the log2 fold change was inactive: 0.

On to SEC62 (UniProt Q99442), for which the log2 fold change is inactive: 0.039.

On to SAP30 (UniProt O75446), for which the log2 fold change was inactive: 0.006.

Consider SENP5 (UniProt Q96HI0), for which the log2 fold change is inactive: 0.062.

For the target SDHD (UniProt O14521), the log2 fold change was inactive: 0.018.

In the case of SEC11C (UniProt Q9BY50), the log2 fold change is inactive: 0.006.

Turning to SEC24B isoform 3 (UniProt O95487), the log2 fold change was inactive: 0.044.

With SCML2 (UniProt Q9UQR0), the log2 fold change was inactive: -0.006.

Regarding SELENOT (UniProt P62341), the log2 fold change is inactive: 0.013.

For the target SEC14L1 isoform 2 (UniProt Q92503), the log2 fold change was inactive: 0.046.

For SAP130 isoform 3 (UniProt Q9H0E3), the log2 fold change was inactive: 0.01.

Regarding SELENOK (UniProt Q9Y6D0), the log2 fold change is inactive: -0.004.

With SASH1 (UniProt O94885), the log2 fold change is inactive: -0.003.

For SDHAF4 (UniProt Q5VUM1), the log2 fold change is inactive: 0.047.

On to SENP8 (UniProt Q96LD8), for which the log2 fold change was inactive: 0.022.

In the case of SDHB, A0A087WWT1, the log2 fold change is inactive: 0.001.

In the case of SDHAF2 (UniProt Q9NX18), the log2 fold change was inactive: -0.013.

As for SALL2 (UniProt Q9Y467), the log2 fold change is inactive: 0.015.

In the case of SCGB1D2 (UniProt O95969), the log2 fold change is inactive: -0.228.

As to SENP3 (UniProt Q9H4L4), the log2 fold change is inactive: -0.435.

Take SCARB2 (UniProt Q14108): the log2 fold change was inactive: -0.003.

SEC61A1 (UniProt P61619): the log2 fold change is inactive: 0.003.

SAE1 (UniProt M0R286): the log2 fold change was inactive: 0.052.

As to SCAF1 (UniProt Q9H7N4), the log2 fold change is inactive: 0.093.

For SAFB isoform 3 (UniProt Q15424), the log2 fold change is inactive: 0.017.

Compound in a further experiment: CCN(CCCOc1ccc2c(Nc3cc(CC(=O)Nc4cccc(F)c4)[nH]n3)ncnc2c1)CCOP(=O)(O)O [barasertib]
Described as above. The gist of the method: as §1
With SEC62 (UniProt Q99442), the log2 fold change was inactive: 0.027.

In the case of SAP30 (UniProt O75446), the log2 fold change is inactive: 0.051.

With SENP5 (UniProt Q96HI0), the log2 fold change is inactive: 0.007.

As for SEC11C (UniProt Q9BY50), the log2 fold change is inactive: 0.038.

With SCYL3 isoform 2 (UniProt Q8IZE3), the log2 fold change is inactive: 0.047.

As to SEC24B isoform 3 (UniProt O95487), the log2 fold change is inactive: 0.051.

Regarding SCML2 (UniProt Q9UQR0), the log2 fold change was inactive: -0.028.

As for SELENOT (UniProt P62341), the log2 fold change is inactive: 0.097.

As to SELENOK (UniProt Q9Y6D0), the log2 fold change is inactive: -0.022.

For the target SASH1 (UniProt O94885), the log2 fold change is inactive: -0.151.

As for SDHAF4 (UniProt Q5VUM1), the log2 fold change was inactive: 0.049.

As to SENP8 (UniProt Q96LD8), the log2 fold change was inactive: 0.087.

Regarding SCAI isoform 2 (UniProt Q8N9R8), the log2 fold change is inactive: 0.051.

As to SDHAF2 (UniProt Q9NX18), the log2 fold change was inactive: 0.265.

As for SEL1L3 (UniProt Q68CR1), the log2 fold change is inactive: -0.05.

In the case of SALL2 (UniProt Q9Y467), the log2 fold change was inactive: 0.059.

Regarding SCGB1D2 (UniProt O95969), the log2 fold change was inactive: 0.192.

As for SCARB2 (UniProt Q14108), the log2 fold change is inactive: -0.011.

In the case of SEC61A1 (UniProt P61619), the log2 fold change is inactive: -0.051.

SCAF1 (UniProt Q9H7N4): the log2 fold change was inactive: 0.079.

As to SAFB isoform 3 (UniProt Q15424), the log2 fold change is inactive: 0.018.
